Laboratory results taken from patent publication US9205128B2, “Method for inhibiting HIV replication in mammal and human cells” (priority 2010, dated 2015).
At least one peptide structure holds a part that was inferred or is arguable (an end, a ring closure or a residue). No end group written: not given here.

Chains of the proteins cited; added tags and fusions are not shown.
UniProt P08670, whole entry: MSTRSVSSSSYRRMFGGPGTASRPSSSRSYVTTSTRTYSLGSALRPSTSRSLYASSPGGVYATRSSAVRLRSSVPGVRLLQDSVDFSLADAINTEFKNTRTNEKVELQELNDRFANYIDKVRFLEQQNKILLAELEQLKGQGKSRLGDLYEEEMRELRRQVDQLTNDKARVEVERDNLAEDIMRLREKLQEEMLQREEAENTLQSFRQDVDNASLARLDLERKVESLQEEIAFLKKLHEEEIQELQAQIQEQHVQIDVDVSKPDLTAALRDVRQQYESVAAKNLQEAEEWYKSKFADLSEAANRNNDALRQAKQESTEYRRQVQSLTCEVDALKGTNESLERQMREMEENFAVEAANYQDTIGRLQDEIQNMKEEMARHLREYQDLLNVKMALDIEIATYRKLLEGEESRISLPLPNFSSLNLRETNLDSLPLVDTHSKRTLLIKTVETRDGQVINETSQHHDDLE

Biological target: T1, vimentin (Homo sapiens, UniProt P08670)
T1 construct: these proteins are endogenous cellular proteins rather than viral; endogenous in cells; host or cells: MT4 cell line (untransduced, shRNA-transduced MT4vim(s), or peptide-treated)
Test: Western blot of vimentin in MT4 cells incubated with peptides
Type: cell-based
Details: 50 μM peptide, 24 h
Procedure: The MT4 cell line was incubated at 50 μM of each peptide for 24 h. The vimentin protein was detected by the western blot technique. Cellular extracts were resuspended in 1% sodium dodecyl sulphate (SDS) and applied in a 10% polyacrylamide gel, being further transferred to a Hybond-P […] membrane. For immunoidentification purposes, anti-vimentin and anti-β actin (as control) antibodies were used. An anti-mouse IgG antibody-peroxidase conjugate was used as secondary antibody. The activity of the peroxidase enzyme was visualized by using diaminobenzidine in the presence of hydrogen peroxide and PBS.

RVTQMNLNDRLASLYDKV [Peptide 1]
vimentin band intensity: decreased intensity
